PubChem BioAssay AID1347076 (National Center for Advancing Translational Sciences (NCATS), 2019)
Out of some 400,000 compounds screened, about 13,000 (3.2%) were called active. The inconclusive results got no clear call from the source; some entries with a clear call stand among them for comparison. The call rests on the fitted dose curve; in most records, active means well fitted cell-killing curve with a large enough effect; inconclusive means small, poorly fitted or top-dose-only effect, or effect the other way; inactive means flat fitted curve, though single readings scatter. A potency beside an inconclusive call is a rough fit, not a confirmed value. Where a structure was tested more than once in an assay, its records may differ in their call.

assay: qHTS assay for MDR1-selective chemotherapeutics: Primary screen using the drug-selected MDR subline cells KB-V1; conditions: KB-V1 MDR cells viability, CellTiter-Glo, 72 h; activity change, negative = cytotoxicity: at 46.1 µM (top of the series); further: nearly all actives have a fitted effect of over 60% in size
Procedure, shortened: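 KB-V1 cells (P-gp-expressing MDR subline of KB-3-1) in phenol-red-free DMEM with 10% FBS were exposed to library compounds over a concentration series for 72 h at 37 degrees C. Viability read by CellTiter-Glo luminescence; concentration-effect curves fitted after normalization.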
On the % scale 0 is the no-effect control and ±100 the full control effect; potency means the concentration at half of the fitted maximal effect.

SMILES | activity change, negative = cytotoxicity | Potency
COc1ccc(C(=O)CSc2nnc(CN3CCCCC3)n2-c2ccc(Cl)cc2)cc1OC | inactive: -7.6% | –
CCOc1cccc2sc(N(Cc3cccnc3)C(C)=O)nc12 | inactive: -26.8% | –
CC(C)c1ccc(-c2nn(-c3ccccc3)cc2C(=O)NCC2CCCO2)cc1 (stereo unspecified) | – | inconclusive: 29.1 µM [cytotoxic, single point]
CC1CCc2c(C(=O)N3CCN(S(=O)(=O)c4cccs4)CC3)csc2C1 (stereo unspecified) | – | inconclusive: 18.4 µM [cytotoxic, single point]
COc1ccc(Cl)cc1NC(=O)C(=O)NCc1ccc(Cl)cc1 | – | inconclusive: 32.6 µM [cytotoxic, single point]
COc1ccc(C(=O)Nc2sc3c(c2C#N)CCN(C(C)=O)C3)cc1 | – | inconclusive: 5.8 µM [cytotoxic, full curve]
Cc1cc(C)c2oc(C(=O)NCCc3ccc(S(N)(=O)=O)cc3)cc(=O)c2c1 | – | inconclusive: 11.6 µM [rising, partial curve]
Cc1oc2ccc(OC(=O)c3cccs3)cc2c1C(=O)OC(C)C | – | inconclusive: 20.6 µM [cytotoxic, single point]
CCn1c(NCc2ccccc2NS(=O)(=O)c2ccc(C)cc2)nc2ccccc21 | – | inconclusive: 29.1 µM [cytotoxic, single point]
O=C1CC(c2ccccc2)Cc2[nH]c(=O)c(-c3nc(-c4ccc(Cl)c(Cl)c4)cs3)cc21 (stereo unspecified) | inactive: 5.24% | –
Cc1sc2nc(C3CC3)nc(NCCNS(C)(=O)=O)c2c1C | – | inconclusive: 29.1 µM [cytotoxic, single point]
O=C(C[N+]1(CC#Cc2ccccc2)CCOCC1)c1ccccc1 | inactive: -12.4% | –
Cc1cccc(CN2CCN(C3CN(Cc4cn(Cc5ccc(F)cc5)nn4)S(=O)(=O)C3)CC2)c1 (stereo unspecified) | – | inconclusive: 7.31 µM [cytotoxic, partial curve]
CCC(C)/C(C)=N/Nc1ccc(S(N)(=O)=O)cc1[N+](=O)[O-] (stereo unspecified) | – | inconclusive: 18.4 µM [cytotoxic, single point]
CCc1cc(=O)oc2cc(C)cc(OC(C)C(=O)NCCCN3CCCC3=O)c12 (stereo unspecified) | – | inconclusive: 6.51 µM [rising, partial curve, poor fit]
CCOC(=O)c1sc(N2C(=O)C(O)=C(C(=O)c3ccco3)C2c2ccc(C)o2)nc1C (stereo unspecified) | – | inconclusive: 3.26 µM [cytotoxic, partial curve, poor fit]
O=C(CNS(=O)(=O)c1ccc(Br)s1)N1CCN(c2ccc(F)cc2)CC1 | – | active: 18.4 µM
Cc1sc2ncnc(N/N=C/c3ccc(O)cc3)c2c1C | – | inconclusive: 18.4 µM [cytotoxic, single point]
O=C(Nc1cccc(-c2ccc(N3CCCCC3)nn2)c1)c1ccc(Br)o1 | – | inconclusive: 6.51 µM [cytotoxic, partial curve]
Cc1ccccc1-c1nsc(SCC(=O)c2ccc(Cl)cc2)n1 | – | inconclusive: 29.1 µM [rising, single point]
COc1cccc(C(=O)/C=C/Nc2cccc(O)c2)c1 | – | inconclusive: 23.1 µM [cytotoxic, partial curve, poor fit]

SMILES | activity change, negative = cytotoxicity | Potency
CCOC(=O)[C@]12CCCC=C1N(Cc1ccco1)C(=O)[C@H](CC(=O)N1CCSCC1)C2 | – | inconclusive: 9.2 µM [cytotoxic, partial curve]
Cc1ccc(N(C)C(=O)N2CCN(S(=O)(=O)c3ccc(C)c(C)c3)CC2)cc1 | – | inconclusive: 8.2 µM [cytotoxic, partial curve]
COc1cccc(/C=C(\C)C(=O)c2c(C)cc(C)[nH]c2=O)c1OC | inactive: 4.04% | –
CCCn1nnc(NC(=O)c2ccc(-c3ccccc3)cc2)n1 | – | inconclusive: 14.6 µM [cytotoxic, partial curve]
COC(=O)c1cccc(NC(=O)CN(c2ccc3c(c2)OCO3)S(C)(=O)=O)c1C | – | inconclusive: 25.9 µM [cytotoxic, partial curve, poor fit]
CCOC(=O)N1CCN(C(=O)c2ccc(N(Cc3ccc(C)cc3)S(C)(=O)=O)cc2)CC1 | – | active: 18.4 µM
O=C(Nc1ccccc1N1CCCCC1)c1ccc(N2C(=O)c3ccccc3C2=O)cc1 | – | inconclusive: 29.1 µM [rising, single point]
Cc1ccc(-c2c(C(=O)N/N=C/c3ccco3)nnn2-c2nonc2N)cc1 | – | inconclusive: 2.91 µM [rising, partial curve, poor fit]
O=C(Nc1cc([N+](=O)[O-])ccc1F)c1cccs1 | – | inconclusive: 7.31 µM [rising, partial curve, poor fit]
Cc1ccc(-c2nc3ccccc3s2)cc1NC(=S)NC(=O)/C=C/c1ccco1 | – | inconclusive: 6.51 µM [cytotoxic, partial curve]
Cc1ccc(C(=O)N2CCN(Cc3ccc4c(c3)OCO4)CC2)cc1S(=O)(=O)N1CCOCC1 | – | active: 16.4 µM
Cc1ccc(S(=O)(=O)NCc2ccccc2)cc1 | – | inconclusive: 5.17 µM [rising, full curve, poor fit]
CN(C(=O)c1ccc(NC(=O)Cc2ccc(NC(=O)C3CCCN(C(=O)C4CCCC4)C3)cc2)cc1)C1CC1 (stereo unspecified) | – | inconclusive: 18.4 µM [rising, partial curve]
O=C(Nc1ncnc2c1C(c1ccccc1)c1c(ccc3ccccc13)O2)c1ccccc1 (stereo unspecified) | – | inconclusive: 18.4 µM [cytotoxic, single point]
Cc1ccc(OC(=O)CSc2nnc(-c3ccc4c(c3)OCO4)o2)c(C)c1 | – | inconclusive: 23.1 µM [rising, partial curve, poor fit]
COc1ccc(C(=O)NC2CC2)cc1OC1CCN(Cc2ccc(F)cc2F)CC1 | inactive: -20.7% | –
CCCCNC(=O)C(NC(=O)c1ccc2c(c1)OCO2)C(=O)c1ccccc1 (stereo unspecified) | – | inconclusive: 4.61 µM [cytotoxic, partial curve, poor fit]
COc1ccc2c(c1)c1c(c(=O)n(Cc3ccccc3)c(=O)n1CC(=O)Nc1ccccc1F)n2C | inactive: -3.23% | –
O=C(NC(=S)Nc1ccc(Cc2ccncc2)cc1)c1ccccc1 | – | active: 18.4 µM
CC(C)c1cc(C(=O)NCc2ccc(F)cc2)c(N)s1 | – | inconclusive: 16.4 µM [cytotoxic, single point]
